No constants are given. Whether binding was seen depends on the method and setting. In cells and extracts the contact can be indirect. Some binding calls cover weakened binding; strength is not graded here.
What was measured:
GST-USP7 (human) = GST-USP7 (human) (UniProt Q93009); test: pull-down; bacterially expressed GST fusion on glutathione beads incubated with in vitro translated SAMHD1 or USP7; only the target purified
[1] = molecular target: HD domain of SAMHD1 (human) (UniProt Q9Y3Z3); test: as above
GST-SAMHD1 (human) = GST-SAMHD1 (human) (UniProt Q9Y3Z3); test: as above
[2] = molecular target: USP7 (human (endogenous in HCT116)) (UniProt Q93009); test: co-IP; cell lysates (HCT116; also Hela, HEK293, A549, TPC-1) in IP lysis buffer (25 mM Tris pH 7.6, 150 mM NaCl, 1% Nonidet P-40, 1 mM EDTA), antibody and protein A/G-Sepharose overnight at 4 °C, IgG control; also cells with or without cisplatin, doxorubicin or H2O2
[3] = molecular target: SAMHD1 (human (endogenous in HCT116)) (UniProt Q9Y3Z3); test: as above

The chains behind the UniProt entries cited, without tags or fusion partners. Where a name states a change or a piece, a line headed by the entry shows the natural chain unless it says otherwise. Residues count along the entry.
UniProt Q93009: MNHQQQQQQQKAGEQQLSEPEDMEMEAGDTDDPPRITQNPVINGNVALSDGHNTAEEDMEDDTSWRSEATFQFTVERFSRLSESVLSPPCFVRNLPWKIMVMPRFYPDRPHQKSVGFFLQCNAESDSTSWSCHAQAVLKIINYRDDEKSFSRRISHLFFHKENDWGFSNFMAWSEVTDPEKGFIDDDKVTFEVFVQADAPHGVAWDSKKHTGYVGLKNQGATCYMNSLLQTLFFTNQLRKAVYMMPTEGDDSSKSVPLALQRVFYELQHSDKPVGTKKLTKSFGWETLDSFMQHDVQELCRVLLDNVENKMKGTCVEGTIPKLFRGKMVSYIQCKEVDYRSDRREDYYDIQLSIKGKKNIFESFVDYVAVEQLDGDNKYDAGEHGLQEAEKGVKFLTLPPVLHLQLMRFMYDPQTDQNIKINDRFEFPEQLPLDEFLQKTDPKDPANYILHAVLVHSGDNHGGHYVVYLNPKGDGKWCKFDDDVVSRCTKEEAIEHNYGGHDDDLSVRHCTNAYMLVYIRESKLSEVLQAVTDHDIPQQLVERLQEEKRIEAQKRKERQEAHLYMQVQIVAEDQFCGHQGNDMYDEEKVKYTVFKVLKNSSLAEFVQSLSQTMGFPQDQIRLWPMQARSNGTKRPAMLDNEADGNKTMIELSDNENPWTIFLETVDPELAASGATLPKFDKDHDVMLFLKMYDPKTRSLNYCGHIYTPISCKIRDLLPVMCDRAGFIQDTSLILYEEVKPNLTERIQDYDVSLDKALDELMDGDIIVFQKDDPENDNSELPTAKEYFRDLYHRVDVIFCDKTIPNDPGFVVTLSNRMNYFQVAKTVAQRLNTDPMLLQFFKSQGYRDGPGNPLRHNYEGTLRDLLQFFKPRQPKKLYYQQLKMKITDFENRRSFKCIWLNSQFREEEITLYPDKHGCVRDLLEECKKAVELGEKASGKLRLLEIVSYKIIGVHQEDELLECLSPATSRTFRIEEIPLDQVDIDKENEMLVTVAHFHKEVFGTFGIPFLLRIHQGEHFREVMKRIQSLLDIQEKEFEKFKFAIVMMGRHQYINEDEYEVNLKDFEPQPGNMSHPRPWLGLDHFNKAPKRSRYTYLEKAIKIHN
UniProt Q9Y3Z3: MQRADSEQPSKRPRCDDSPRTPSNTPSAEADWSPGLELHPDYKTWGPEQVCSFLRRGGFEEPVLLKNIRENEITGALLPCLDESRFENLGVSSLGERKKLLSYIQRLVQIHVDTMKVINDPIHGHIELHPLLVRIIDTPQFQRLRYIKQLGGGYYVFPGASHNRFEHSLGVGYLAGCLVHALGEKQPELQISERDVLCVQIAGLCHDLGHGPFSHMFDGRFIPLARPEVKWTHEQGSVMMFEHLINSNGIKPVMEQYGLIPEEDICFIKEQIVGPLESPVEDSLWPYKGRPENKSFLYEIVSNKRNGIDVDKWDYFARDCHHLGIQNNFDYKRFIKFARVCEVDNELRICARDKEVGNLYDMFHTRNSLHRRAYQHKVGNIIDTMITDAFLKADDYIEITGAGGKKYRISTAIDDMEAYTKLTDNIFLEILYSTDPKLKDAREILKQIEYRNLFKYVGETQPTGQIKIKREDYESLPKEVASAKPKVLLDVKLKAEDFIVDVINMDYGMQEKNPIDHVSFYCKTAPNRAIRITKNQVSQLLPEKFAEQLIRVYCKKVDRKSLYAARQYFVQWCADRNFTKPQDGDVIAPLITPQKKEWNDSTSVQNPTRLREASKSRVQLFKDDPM
HD domain of SAMHD1: residues 115-583 of Q9Y3Z3

## Recombinant human SAMHD1 (from UniProt Q9Y3Z3 1-626)
GST-USP7 (human)
  binding: binds

## Recombinant human USP7 (from UniProt Q93009 1-1102) (enzyme)
[1]
  binding: binds
GST-SAMHD1 (human)
  binding: binds

## SAMHD1 (from UniProt Q9Y3Z3 1-626)
[2]
  binding: binds

## USP7 (from UniProt Q93009 1-1102) (enzyme)
[3]
  binding: binds

Source: PMC10238270
